{"source": "PubChem BioAssay AID2685", "about": "(National Center for Advancing Translational Sciences (NCATS), 2010)", "assay": "qHTS Assay for Lipid Storage Modulators in Drosophila S3 Cells;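 as to cell number change: cells counted by Cell Tracker Red CMTPX staining in the red channel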", "settings": "BODIPY lipid droplet fluorescence, 18-24 h; for cell number change: measured here: cell count max response, cells fed with added oleic acid", "how_it_was_run": "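Drosophila S3 cells got compounds at several concentrations plus oleic acid (400 uM solution). Laser-scanning cytometry with 488 nm excitation read lipid droplets at 500-530 nm and cells at 575-640 nm. Percent activity was relative to 20 uM Triacsin C.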", "key": {"[1]": {"settings": "measured here: cell number channel AC50, cells fed with added oleic acid"}, "[2]": {"settings": "measured here: lipid fluorescence (Fed channel) AC50, cells fed with added oleic acid"}}, "note": "Some of the results follow. These are further read-outs of the screen, such as a control signal, another cell line or another target. No call is given for them. The list favours compounds with an active or inconclusive main result. Words in brackets tell the shape of the fitted curve; partial curves, single points and poor fits give uncertain potencies.", "data": [{"smiles": "COc1ccc2c(c1)CC/C(=C\\c1ccc(OC)c(Cn3cccn3)c1)C2=O", "values": [{"measurement": "AC50", "setting": "[1]", "value": "1.64 µM [rising, partial curve]"}, {"measurement": "AC50", "setting": "[2]", "value": "6.51 µM [rising, single point]"}]}, {"smiles": "Cc1ccc(C(=O)Nc2cccc(-c3ccc(N4CCOCC4)nn3)c2)cc1[N+](=O)[O-]", "values": [{"measurement": "AC50", "setting": "[2]", "value": "1.3 µM [rising, partial curve]"}]}, {"smiles": "CC(C)C(=O)Nc1ccc(-c2nnc(-c3ccccc3)o2)cc1", "values": [{"measurement": "cell number change", "value": -2.84, "unit": "%"}]}, {"smiles": "Cc1cccc(CSc2cccc3cccnc23)c1", "values": [{"measurement": "cell number change", "value": -23.8, "unit": "%"}, {"measurement": "AC50", "setting": "[1]", "value": "1.64 µM [falling, full curve, poor fit]"}, {"measurement": "AC50", "setting": "[2]", "value": "3.66 µM [falling, partial curve]"}]}, {"smiles": "COc1ccc(S(=O)(=O)N2CCC(C(=O)N3CCc4ccccc4C3)CC2)cc1", "values": [{"measurement": "cell number change", "value": 2.84, "unit": "%"}, {"measurement": "AC50", "setting": "[2]", "value": "6.51 µM [rising, single point]"}]}, {"smiles": "COc1ccc(Cl)cc1NC(=O)CN(C)Cc1ccc(OC)c(OC)c1", "values": [{"measurement": "cell number change", "value": 110, "unit": "%"}, {"measurement": "AC50", "setting": "[1]", "value": "16.4 µM [rising, single point]"}]}, {"smiles": "COc1ccc(NC(=O)/C(C#N)=C/c2c(C)nn(-c3ccc(F)cc3)c2Cl)cc1Cl", "values": [{"measurement": "cell number change", "value": 36.1, "unit": "%"}, {"measurement": "AC50", "setting": "[2]", "value": "29.1 µM [rising, single point]"}]}, {"smiles": "CCOc1ncccc1C(=O)OCC(=O)NCCc1ccccc1", "values": [{"measurement": "cell number change", "value": 77.1, "unit": "%"}, {"measurement": "AC50", "setting": "[1]", "value": "14.6 µM [rising, partial curve]"}, {"measurement": "AC50", "setting": "[2]", "value": "16.4 µM [rising, partial curve]"}]}, {"smiles": "Cc1noc2ncnc(Sc3ccc(Br)cc3)c12", "values": [{"measurement": "cell number change", "value": -66.1, "unit": "%"}, {"measurement": "AC50", "setting": "[1]", "value": "17.8 µM [falling, single point]"}, {"measurement": "AC50", "setting": "[2]", "value": "20 µM [falling, partial curve]"}]}, {"smiles": "CC(=O)c1cccc(NC(=S)NNC(=O)c2ccco2)c1", "values": [{"measurement": "cell number change", "value": 2.55, "unit": "%"}, {"measurement": "AC50", "setting": "[2]", "value": "3.26 µM [rising, full curve]"}]}, {"smiles": "CC(C)C[C@H]1CN=C(Nc2ccccc2)N1CCC(C)c1ccccc1", "note": "(stereo partly drawn)", "values": [{"measurement": "cell number change", "value": 17.2, "unit": "%"}, {"measurement": "AC50", "setting": "[2]", "value": "1.84 µM [falling, partial curve, poor fit]"}]}, {"smiles": "COc1ccccc1C1C(C#N)=C(N)Oc2cc(C)n(Cc3ccccn3)c(=O)c21", "note": "(stereo not drawn)", "values": [{"measurement": "cell number change", "value": 65.9, "unit": "%"}, {"measurement": "AC50", "setting": "[1]", "value": "1.3 µM [rising, full curve]"}, {"measurement": "AC50", "setting": "[2]", "value": "4.61 µM [rising, single point]"}]}, {"smiles": "Cc1cc(/C=C2\\C(=N)N3C(SCc4ccccc4)=NSC3=NC2=O)c(C)n1Cc1ccccc1", "values": [{"measurement": "cell number change", "value": -41.4, "unit": "%"}, {"measurement": "AC50", "setting": "[1]", "value": "2.31 µM [falling, full curve]"}, {"measurement": "AC50", "setting": "[2]", "value": "29.1 µM [falling, single point]"}]}, {"smiles": "O=C(COC(=O)CCNS(=O)(=O)c1ccc(Cl)cc1)Nc1ccccc1OC(F)F", "values": [{"measurement": "AC50", "setting": "[2]", "value": "18.4 µM [rising, single point]"}]}, {"smiles": "CCCCCn1nc(C)c(/C=N/NC(=O)c2ccoc2C)c1C", "values": [{"measurement": "cell number change", "value": -19.5, "unit": "%"}, {"measurement": "AC50", "setting": "[2]", "value": "11.6 µM [falling, partial curve]"}]}, {"smiles": "CC(C)NC(=O)CN1CCC(c2nc3ccccc3[nH]2)CC1", "values": [{"measurement": "cell number change", "value": -9.07, "unit": "%"}]}, {"smiles": "Clc1ccc(-c2csc(N/N=C/c3cccnc3)n2)c(Cl)c1", "values": [{"measurement": "cell number change", "value": -11.5, "unit": "%"}, {"measurement": "AC50", "setting": "[1]", "value": "5.8 µM [rising, single point]"}, {"measurement": "AC50", "setting": "[2]", "value": "2.91 µM [rising, partial curve]"}]}, {"smiles": "Cc1c(NC(=O)C(C)Sc2nnc(-c3ccccc3)o2)c(=O)n(-c2ccccc2)n1C", "note": "(stereo not drawn)", "values": [{"measurement": "cell number change", "value": 0.282, "unit": "%"}]}, {"smiles": "O=C1C=C(c2cccc(CO)c2)C[C@@H](c2ccc3c(c2)OCO3)C1", "values": [{"measurement": "cell number change", "value": -1.03, "unit": "%"}, {"measurement": "AC50", "setting": "[1]", "value": "1.16 µM [falling, single point]"}, {"measurement": "AC50", "setting": "[2]", "value": "0.58 µM [falling, single point]"}]}, {"smiles": "O=C(Nc1cccnc1)c1cccc(NC(=O)c2ccco2)c1", "values": [{"measurement": "AC50", "setting": "[2]", "value": "16.4 µM [rising, partial curve]"}]}, {"smiles": "CC(CCc1ccccc1)NC(=O)c1ccc2nc(N3CCOCC3)sc2c1", "note": "(stereo not drawn)", "values": [{"measurement": "cell number change", "value": 1.6, "unit": "%"}, {"measurement": "AC50", "setting": "[2]", "value": "0.146 µM [falling, full curve, poor fit]"}]}, {"smiles": "CCOC(=O)CC1C(=O)NCCN1c1nc2ccc(C)cn2c(=O)c1/C=C1\\SC(=S)N(C(C)CC)C1=O", "note": "(stereo not drawn)", "values": [{"measurement": "cell number change", "value": -97.4, "unit": "%"}, {"measurement": "AC50", "setting": "[1]", "value": "2.59 µM [falling, full curve]"}]}, {"smiles": "C=CCn1c(Cc2cccs2)nnc1SCC(=O)Nc1ccc(OC)c(OC)c1", "values": [{"measurement": "cell number change", "value": 113, "unit": "%"}, {"measurement": "AC50", "setting": "[1]", "value": "5.17 µM [rising, partial curve]"}, {"measurement": "AC50", "setting": "[2]", "value": "3.66 µM [rising, partial curve]"}]}, {"smiles": "CCc1ccc(-c2nc(CS(=O)CC(=O)NCCc3ccccc3)c(C)o2)cc1", "note": "(stereo not drawn)", "values": [{"measurement": "cell number change", "value": -19.6, "unit": "%"}, {"measurement": "AC50", "setting": "[2]", "value": "0.517 µM [falling, full curve, poor fit]"}]}, {"smiles": "COC(=O)C1CCN(C(=O)C2CCC(=O)N(CCc3cccc(F)c3)C2)CC1", "note": "(stereo not drawn)", "values": [{"measurement": "AC50", "setting": "[1]", "value": "1.84 µM [falling, partial curve, poor fit]"}]}, {"smiles": "CCN1CCN(c2cc(C)c3cc(NC(=S)NCCCOC)ccc3n2)CC1", "values": [{"measurement": "AC50", "setting": "[2]", "value": "6.51 µM [rising, single point]"}]}, {"smiles": "CN(C(=O)C1CCOC1)c1nnc(C2CCOC2)s1", "note": "(stereo not drawn)", "values": [{"measurement": "cell number change", "value": -9.55, "unit": "%"}, {"measurement": "AC50", "setting": "[2]", "value": "11.6 µM [falling, partial curve]"}]}, {"smiles": "O=C(NCC(c1cccs1)N1CCOCC1)c1cccnc1", "note": "(stereo not drawn)", "values": [{"measurement": "cell number change", "value": -0.167, "unit": "%"}]}, {"smiles": "CCCCOc1ccc(C(=O)N(Cc2ccco2)C2CCS(=O)(=O)C2)cc1", "note": "(stereo not drawn)", "values": [{"measurement": "cell number change", "value": -5.2, "unit": "%"}]}, {"smiles": "CC1CN(C(=O)c2ccccc2Oc2ccccc2)CC(C)O1", "note": "(stereo not drawn)", "values": [{"measurement": "cell number change", "value": -60.2, "unit": "%"}, {"measurement": "AC50", "setting": "[1]", "value": "18.4 µM [falling, single point]"}, {"measurement": "AC50", "setting": "[2]", "value": "29.1 µM [falling, single point]"}]}, {"smiles": "CCCc1nn(C)c(C(=O)Nc2cccc(Cl)c2)c1Cl", "values": [{"measurement": "cell number change", "value": -33.6, "unit": "%"}, {"measurement": "AC50", "setting": "[1]", "value": "16.4 µM [falling, single point]"}, {"measurement": "AC50", "setting": "[2]", "value": "18.4 µM [falling, single point]"}]}, {"smiles": "NS(=O)(=O)c1ccc(CCNC(=O)c2cc(-c3cc(Cl)ccc3O)n[nH]2)cc1", "values": [{"measurement": "AC50", "setting": "[2]", "value": "4.61 µM [rising, single point]"}]}, {"smiles": "Cc1ccc(C(=O)N(CC(=O)NC2CCCC2)c2cccc(F)c2)s1", "values": [{"measurement": "cell number change", "value": -3.81, "unit": "%"}, {"measurement": "AC50", "setting": "[1]", "value": "0.082 µM [rising, full curve, poor fit]"}]}, {"smiles": "COc1ccc(C(=O)COC(=O)CN2CC(=O)Oc3ccccc32)cc1Br", "values": [{"measurement": "cell number change", "value": -78.4, "unit": "%"}, {"measurement": "AC50", "setting": "[1]", "value": "16.4 µM [falling, partial curve]"}]}, {"smiles": "Cc1ccccc1N1C(=O)C2C3CCC(O3)C2C1=O", "note": "(stereo not drawn)", "values": [{"measurement": "cell number change", "value": 13, "unit": "%"}, {"measurement": "AC50", "setting": "[2]", "value": "8.2 µM [rising, partial curve]"}]}, {"smiles": "CC1=C(C(N)=O)C(c2ccc(Cl)cc2)n2nc(CCCO)nc2N1", "note": "(stereo not drawn)", "values": [{"measurement": "cell number change", "value": 52.1, "unit": "%"}, {"measurement": "AC50", "setting": "[1]", "value": "23.1 µM [rising, single point]"}]}, {"smiles": "CN(C(=S)NC(=O)Cc1ccccc1)c1ccccc1", "values": [{"measurement": "cell number change", "value": 85.7, "unit": "%"}, {"measurement": "AC50", "setting": "[1]", "value": "16.4 µM [rising, single point]"}]}]}
